Among the data in publication PMC12376509 are binding values, retold here.

Protein sequences, listed by entry. Tags and fused reporters are not part of them.
UniProt O14965: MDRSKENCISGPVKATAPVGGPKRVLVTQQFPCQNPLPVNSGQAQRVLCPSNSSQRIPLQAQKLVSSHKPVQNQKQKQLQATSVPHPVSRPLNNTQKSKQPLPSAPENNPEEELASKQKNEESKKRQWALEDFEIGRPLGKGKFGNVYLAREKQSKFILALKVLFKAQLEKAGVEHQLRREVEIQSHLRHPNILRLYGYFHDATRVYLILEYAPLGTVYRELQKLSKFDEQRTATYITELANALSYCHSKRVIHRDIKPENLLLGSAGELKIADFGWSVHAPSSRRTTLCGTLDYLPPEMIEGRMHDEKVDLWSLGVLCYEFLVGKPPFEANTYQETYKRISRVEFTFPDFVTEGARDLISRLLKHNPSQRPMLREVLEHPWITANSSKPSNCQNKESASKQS

No constants are given. Whether binding was seen depends on the method and setting. Binding seen in cells or lysates may run through a third protein. A yes stands for co-enrichment or nearness to the bait. Other partners may have been found.

In this assay the target is T1, NEAT1-31 (micropeptide encoded by LincNEAT1) (human (endogenous in THP1)).
T1 sequence: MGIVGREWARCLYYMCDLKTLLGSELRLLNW
Put plainly: affinity purification with mass spectrometry; co-IP with the NEAT1-31 antibody from macrophage (THP1) lysate; 0.3% CHAPS lysis buffer, Protein A/G beads, 4 °C, 8-12 h, washed with PBST; LC-MS.

In the case of “Aurora-A (from UniProt O14965 1-403) (enzyme)”, the binding entry is on record as “binds”.
